This is an account of results in PMC3526273.

Chains of the proteins cited; added tags and fusions are not shown. Lines headed by an entry give the natural chain unless they say otherwise; changes in a name come on top.
UniProt P15873: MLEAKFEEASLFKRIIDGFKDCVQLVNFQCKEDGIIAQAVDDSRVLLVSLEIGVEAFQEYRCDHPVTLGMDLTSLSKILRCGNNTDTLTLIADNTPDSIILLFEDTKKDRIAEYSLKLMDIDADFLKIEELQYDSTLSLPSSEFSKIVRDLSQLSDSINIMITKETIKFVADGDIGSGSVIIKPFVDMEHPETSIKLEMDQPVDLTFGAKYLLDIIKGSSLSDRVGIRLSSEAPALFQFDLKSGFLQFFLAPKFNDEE

These are yes or no findings as the source states them, for the method shown. Some binding calls cover weakened binding; strength is not graded here. Where a sequence is shown, tags or fusion partners need not be part of it.

In assay [1] the target is GSTSmt3 (S. cerevisiae) [SUMO: Q12306]. The assay is described as follows: pull-down; GST-tagged protein immobilised on glutathione Sepharose (1 h, 4°C), binding partner added for 90 min at 4°C in phosphate-buffered saline with 0.05% Triton X-100; three washes; anti-His western blot; both purified. Background: Immunoblotting shows a protein as a band on a membrane.
The target in a further assay is T1, GSTUbc9 (S. cerevisiae) (UniProt P50623).
T1 sequence: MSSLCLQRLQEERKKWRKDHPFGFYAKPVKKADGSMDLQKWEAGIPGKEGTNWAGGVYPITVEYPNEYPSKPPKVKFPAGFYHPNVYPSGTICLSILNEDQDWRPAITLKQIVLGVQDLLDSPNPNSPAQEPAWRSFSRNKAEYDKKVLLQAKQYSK
Described as above.

In assay [2] the target is PCNA (S. cerevisiae, POL30), two-hybrid fusion (S. cerevisiae) (UniProt P15873). Nature of the assay: two-hybrid; Gal4 system in reporter strain PJ69-4A; activation domain (AD) and DNA-binding domain (BD) fusions; growth on medium lacking histidine (-HLW) or, for stronger interactions, histidine and adenine (-AHLW).
In assay [3] the target is PCNA(K127/164R), two-hybrid fusion (S. cerevisiae) (UniProt P15873). Described as above.
Assay [4] addresses T2, Ubc9 (S. cerevisiae SUMO E2), two-hybrid fusion (S. cerevisiae) (UniProt P50623).
T2 sequence: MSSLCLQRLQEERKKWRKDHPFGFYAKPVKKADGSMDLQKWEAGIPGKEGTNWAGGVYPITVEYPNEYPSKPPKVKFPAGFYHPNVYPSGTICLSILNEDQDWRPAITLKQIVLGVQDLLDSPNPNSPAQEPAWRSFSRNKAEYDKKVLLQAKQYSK
The description is as above.

Assay [5] deals with full-length Smt3 (S. cerevisiae SUMO), two-hybrid fusion (S. cerevisiae) [SUMO: Q12306]. Described as above.
Assay [6] concerns the target Rad18 (S. cerevisiae), two-hybrid fusion (S. cerevisiae) (UniProt P10862). The description is as above.

B1: HisRad18(1-255) (domain or fragment, UniProt P10862 1-255)
chain: MDHQITTASDFTTTSIPSLYQLDTLLRCHICKDFLKVPVLTPCGHTFCSLCIRTHLNNQPNCPLCLFEFRESLLRSEFLVSEIIQSYTSLRSSLLDALRIPKPTPVPENEEVPGPENSSWIELISESESDSVNAADDDLQIVATSERKLAKRSMTDILPLSSKPSKRNFAMFRSERIKKKSKPNEQMAQCPICQQFYPLKALEKTHLDECLTLQSLGKKPKISTTFPTESNPHNKSSSRFKVRTPEVDKSSCGET
As for B1, the binding result is “binds” in assay [1] and “binds weakly” in the assay with GSTUbc9 (S. cerevisiae).

B2: HisRad18(1-255) SIM* (L139A, I141A, V142A) (domain or fragment, UniProt P10862 1-255)
chain: MDHQITTASDFTTTSIPSLYQLDTLLRCHICKDFLKVPVLTPCGHTFCSLCIRTHLNNQPNCPLCLFEFRESLLRSEFLVSEIIQSYTSLRSSLLDALRIPKPTPVPENEEVPGPENSSWIELISESESDSVNAADDDAQAAATSERKLAKRSMTDILPLSSKPSKRNFAMFRSERIKKKSKPNEQMAQCPICQQFYPLKALEKTHLDECLTLQSLGKKPKISTTFPTESNPHNKSSSRFKVRTPEVDKSSCGET
As for B2, the binding entry (in assay [1]; in the assay with GSTUbc9 (S. cerevisiae)) was “binds weakly” throughout.

B3: Rad18 (S. cerevisiae), two-hybrid fusion (protein, UniProt P10862 1-487)
chain: MDHQITTASDFTTTSIPSLYQLDTLLRCHICKDFLKVPVLTPCGHTFCSLCIRTHLNNQPNCPLCLFEFRESLLRSEFLVSEIIQSYTSLRSSLLDALRIPKPTPVPENEEVPGPENSSWIELISESESDSVNAADDDLQIVATSERKLAKRSMTDILPLSSKPSKRNFAMFRSERIKKKSKPNEQMAQCPICQQFYPLKALEKTHLDECLTLQSLGKKPKISTTFPTESNPHNKSSSRFKVRTPEVDKSSCGETSHVDKYLNSMMSAEHQRLPKINFTSMTQSQIKQKLSSLGLSTNGTRQNMIKRYNHYEMLWNSNFCDSLEPVDEAELKRQLLSWDVSHNKTPQNSSNKGGISKLMIMKSNGKSSSYRKLLENFKNDKFNRKGWMVMFRKDFARLIREAKMKIKTGSSDSSGSVGHSNDGDGVEKVQSDQGTEDQQMEKDQDTVINEDRVAGERNLPNEDSTDADLSRELMDLNEYSKDPPGNN
For the molecule B3, the binding entry in assay [2], in assay [3], in assay [4], in assay [5] and in assay [6] was “binds” each time.

B4: Rad18(SIM*) (L139A, I141A, V142A), two-hybrid fusion (protein, UniProt P10862 1-487)
chain: MDHQITTASDFTTTSIPSLYQLDTLLRCHICKDFLKVPVLTPCGHTFCSLCIRTHLNNQPNCPLCLFEFRESLLRSEFLVSEIIQSYTSLRSSLLDALRIPKPTPVPENEEVPGPENSSWIELISESESDSVNAADDDAQAAATSERKLAKRSMTDILPLSSKPSKRNFAMFRSERIKKKSKPNEQMAQCPICQQFYPLKALEKTHLDECLTLQSLGKKPKISTTFPTESNPHNKSSSRFKVRTPEVDKSSCGETSHVDKYLNSMMSAEHQRLPKINFTSMTQSQIKQKLSSLGLSTNGTRQNMIKRYNHYEMLWNSNFCDSLEPVDEAELKRQLLSWDVSHNKTPQNSSNKGGISKLMIMKSNGKSSSYRKLLENFKNDKFNRKGWMVMFRKDFARLIREAKMKIKTGSSDSSGSVGHSNDGDGVEKVQSDQGTEDQQMEKDQDTVINEDRVAGERNLPNEDSTDADLSRELMDLNEYSKDPPGNN
B4: the binding result in assay [2] is given as “binds”; in assay [4], “binds”; in assay [5], “binds weakly”.
